This test addresses human SSTR2 (Homo sapiens (Human), UniProt P30874). Briefly: Human SSTR2 intracellular cAMP functional assay for agonists (HTRF). It is filed as cell-based. The note with it: read-out: EC50 (inhibition of cAMP activities via human SST2R); CHO-K1 cells stably expressing human SSTR2; NKH477-stimulated cAMP. Background: Time-resolved FRET reads energy transfer from a long-lived donor to a nearby acceptor.

The chains behind the UniProt entries cited, without tags or fusion partners.
UniProt P30874, whole entry: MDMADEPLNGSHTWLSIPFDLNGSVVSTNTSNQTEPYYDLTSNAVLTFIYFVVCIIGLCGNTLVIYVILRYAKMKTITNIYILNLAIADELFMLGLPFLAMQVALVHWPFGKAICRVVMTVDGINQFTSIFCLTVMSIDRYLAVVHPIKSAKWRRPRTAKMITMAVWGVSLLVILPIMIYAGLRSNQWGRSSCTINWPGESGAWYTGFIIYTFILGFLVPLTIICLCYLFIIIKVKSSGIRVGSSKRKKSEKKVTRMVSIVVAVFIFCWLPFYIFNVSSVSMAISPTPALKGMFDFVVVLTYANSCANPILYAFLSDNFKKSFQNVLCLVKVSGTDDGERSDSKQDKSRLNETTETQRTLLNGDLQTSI

Some entries of the source have several records that differ or are many. Only these are listed. An entry can have further records. The values listed for one entry do not match, cause unknown; dose, time, organism, isomer or construct need not be as stated for each record.

A word on the EC50: it is the concentration needed to bring the measured effect to its halfway point. As for `N#Cc1ccnc(-c2ccc3ncc(-c4cc(F)cc(F)c4)c(N4CC[C@H]5NCCO[C@@H]5C4)c3c2)c1O` (relative stereo), the concentration giving a half-maximal response (EC50) is 100 nM to 1 µM and < 10 nM.

(Values after patent publication US10351547B2, “Somatostatin modulators and uses thereof” (priority 2016, dated 2019).)
